Experimental data: publication doi:10.1101/418368
These are yes or no findings as the source states them, for the method shown. Binding seen in cells or lysates may run through a third protein. Some results given as binding are weak or reduced against the parent protein; the word gives no strength.

Molecular target: T1, Mcm3 (Xenopus laevis (endogenous in egg extract)) (UniProt P49739)
T1 sequence: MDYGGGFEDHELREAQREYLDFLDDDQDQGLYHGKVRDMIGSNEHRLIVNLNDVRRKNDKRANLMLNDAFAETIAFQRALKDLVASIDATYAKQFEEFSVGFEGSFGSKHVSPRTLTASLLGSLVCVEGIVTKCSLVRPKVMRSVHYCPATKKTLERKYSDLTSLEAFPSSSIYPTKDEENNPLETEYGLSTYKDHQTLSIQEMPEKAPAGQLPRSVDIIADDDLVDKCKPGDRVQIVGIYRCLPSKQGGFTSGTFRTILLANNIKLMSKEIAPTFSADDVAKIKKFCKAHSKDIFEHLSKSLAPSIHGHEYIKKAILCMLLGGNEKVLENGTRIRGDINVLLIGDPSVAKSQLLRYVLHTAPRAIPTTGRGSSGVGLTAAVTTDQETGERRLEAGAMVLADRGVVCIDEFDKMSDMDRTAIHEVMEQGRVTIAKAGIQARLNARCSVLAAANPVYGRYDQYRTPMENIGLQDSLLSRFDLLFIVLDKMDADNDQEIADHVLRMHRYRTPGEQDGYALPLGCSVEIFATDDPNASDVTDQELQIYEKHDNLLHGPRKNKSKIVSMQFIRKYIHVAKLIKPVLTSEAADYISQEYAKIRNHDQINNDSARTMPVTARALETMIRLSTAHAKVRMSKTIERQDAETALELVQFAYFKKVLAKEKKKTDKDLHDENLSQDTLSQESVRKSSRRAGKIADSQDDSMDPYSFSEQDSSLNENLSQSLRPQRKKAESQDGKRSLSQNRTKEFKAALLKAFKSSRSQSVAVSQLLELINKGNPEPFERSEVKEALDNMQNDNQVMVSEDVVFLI
Assay: co-IP

B1: TRAIP ubiquitin ligase (enzyme, UniProt Q6NRV0 1-464)
chain: MPIRAYCTICSDFFDNARDVAAITCGHTFHQECLLQWFHSAPHRTCPQCRIQVSSRQIINKLFFDIGGEEETVLDAESLKNEVDRIKASLLVKEKEKRECQGLVDSLREMLDVRNVTIQSQQKELGDMEMLCSTLKKQIKFLDKQQSETKAAKDEARKLRNKLKTMESIEVLLQSQRSEVEEMIRDMGSGQAAVEQLAIYCVSLKKEYENLKEVRKSSAEMTEKLRKELFSSNHKAQKAELELTKVREELSASQKELHSADKEIMSLKKKVEFLQKTLTTPTASNEAISRLIFESPAPIGLERPKLRPPMMGNDINLDVTFDIDTPEHNTQKSVVAPFKKMKFDNKEHPLSSPTKNPLQESKGLMSWAGGRTGADEDDDLTLPSFIKNSLLHKKPVGSLLGLRQNTGAVRTGFDGLGGRTKFIQPSNLTEIRPLHQKMKRKKVSRPTACTSSLANQPRLEDFLK
Q: For B1, which binding is on record?
A: The binding was “binds”.
